Data on 33 molecules can be found in PubChem BioAssay AID2685 (National Center for Advancing Translational Sciences (NCATS), 2010).

This is one part of the list. The main result of the screen is listed elsewhere. These columns were measured beside it and carry no call. Most of these compounds were active or inconclusive in the main read-out, so they are no random draw. Words in brackets tell the shape of the fitted curve; partial curves, single points and poor fits give uncertain potencies.

The experiment can be described thus: qHTS Assay for Lipid Storage Modulators in Drosophila S3 Cells.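 On cell number change: cells counted by Cell Tracker Red CMTPX staining in the red channel.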 The conditions noted are these: BODIPY lipid droplet fluorescence, 18-24 h; for cell number change: measured here: cell count max response, cells fed with added oleic acid. The gist of the method: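 Drosophila S3 cells got compounds at several concentrations plus oleic acid (400 uM solution). Laser-scanning cytometry with 488 nm excitation read lipid droplets at 500-530 nm and cells at 575-640 nm. Percent activity was relative to 20 uM Triacsin C.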

Where [1] appears, read: measured here: cell number channel AC50, cells fed with added oleic acid.
[2] abbreviates: measured here: lipid fluorescence (Fed channel) AC50, cells fed with added oleic acid.

Consider `CNC(=O)N(O)C1N(c2ccccc2)C(=S)SC1(C)C` (configuration not stated), for which the cell number change was 14.1%. In addition, the AC50 under setting [1] was 6.51 µM [falling, single point]. For the same molecule, under setting [2], the AC50 was 6.51 µM [falling, single point].
Consider `Cc1ccc(N(C)S(=O)(=O)c2cccc(C(=O)NCC(c3ccco3)N3CCCC3)c2)cc1` (configuration not stated), for which, under setting [2], the AC50 is 6.51 µM [falling, partial curve].
On to `Cc1ccc(CCNC(=O)CCc2nc3ccccc3[nH]2)cc1`, for which the cell number change is -4.13%. In addition, the AC50 under setting [2] was 23.1 µM [falling, partial curve, poor fit].
For the molecule `COc1ccc(S(=O)(=O)N2CCCCCC2)cc1C(=O)N(C)Cc1cccc(OC)c1OC`, the AC50 under setting [1] is 2.59 µM [rising, single point].
For `COc1ccccc1OCC(=O)OCC(=O)Nc1sccc1C(N)=O`, the AC50 under setting [2] was 0.116 µM [falling, partial curve, poor fit].
Consider `CCO[C@@H]1OC(C(=O)NC2CC2)=C[C@H](c2ccc(C(F)(F)F)cc2)[C@H]1CCCO`, for which the cell number change came out at 19.7%. For the same molecule, the AC50 under setting [2] was 2.59 µM [rising, full curve, poor fit].
In the case of `COCCn1c(-c2ccc(Cl)cc2)cnc1SCC(=O)NCc1cccs1`, the cell number change amounted to 58.4%. The AC50 under setting [1] was 20.6 µM [rising, single point]. Also, under setting [2], the AC50 is 5.17 µM [rising, single point].
As for `Cc1c(CN2CCC(CO)(CCOc3ccccc3)CC2)[nH]c2c(Cl)cccc12`, the cell number change was -49.4%. Besides, the AC50 under setting [1] was 18.4 µM [falling, single point]. In addition, the AC50 under setting [2] was 32.6 µM [falling, partial curve, poor fit].
Consider `CCc1ccc(NC(=O)CNCc2ccc(OC)c(OC)c2)cc1`, for which the cell number change turned out to be 23%.
Consider `O=C(c1ccc(F)cc1)N1CCC(O)(c2cccnc2)CC1`, for which the cell number change was found to be 20.4%. Further, the AC50 under setting [1] is 5.17 µM [falling, single point]. Also, under setting [2], the AC50 was 0.82 µM [falling, full curve, poor fit].
For `Cc1[nH][nH]c(=O)c1C=NCc1cccnc1`, the cell number change was found to be 13.9%. The AC50 under setting [1] was 0.00517 µM [rising, full curve, poor fit]. The AC50 under setting [2] was 0.00651 µM [rising, full curve, poor fit].
Take `Cc1ccc(C(=O)Oc2ccc3c(c2)ncn3C)cc1`: the cell number change came out at 14.4%.
As for `Cc1ccc(C)c(NC(=O)CSc2nnc(CNC(=O)c3ccco3)n2C)c1`, the cell number change is 7.39%. Also, under setting [2], the AC50 was 6.51 µM [rising, partial curve].
On to `CC(=O)c1ccc(S(=O)(=O)Nc2ccc(C(=O)NCCCn3ccnc3)cc2)cc1`, for which the cell number change is -54.9%. Besides, the AC50 under setting [1] was 16.4 µM [falling, single point]. For the same molecule, the AC50 under setting [2] is 29.1 µM [falling, single point].
Turning to `Cc1onc(-c2ccccc2Cl)c1C(=O)Nc1nn[nH]n1`, the cell number change is 39%. For the same molecule, the AC50 under setting [1] was 4.11 µM [rising, full curve]. Further, the AC50 under setting [2] is 29.1 µM [rising, single point].
Consider `Cc1ccc(C)c(N2CCN(C(=O)COc3cc(=O)n(C)c4ccccc34)CC2)c1`, for which the cell number change is -27.4%. Besides, the AC50 under setting [2] is 4.11 µM [rising, partial curve, poor fit].
As to `O=C1CN(C(=O)c2ccc(F)c(S(=O)(=O)N3CCOCC3)c2)c2ccccc2N1`, the cell number change was found to be 34.3%. In addition, under setting [1], the AC50 is 6.51 µM [rising, single point]. Also, the AC50 under setting [2] was 25.9 µM [rising, single point].
`O=C1CCCC2=C1C(c1c(Cl)nc3sccn13)C1=C(CCCC1=O)N2`: the cell number change is 27.6%.
On to `Cc1ccc(NC(=O)c2cc(-c3ccccc3)nn2-c2ccccc2)cc1`, for which the cell number change came out at 0.792%. The AC50 under setting [1] is 3.26 µM [rising, partial curve]. Under setting [2], the AC50 was 2.91 µM [rising, single point].
Turning to `N#Cc1c(C(F)(F)F)cc(-c2ccccc2)nc1SCc1nc(N)nc(N2CCOCC2)n1`, the cell number change was -61.1%. Also, under setting [1], the AC50 was 29.1 µM [falling, single point].
Consider `COC(=O)C1=C(C)Nc2ncnn2C1c1ccc(OCc2ccccc2)cc1` (configuration not stated), for which the cell number change was 42.5%. Also, the AC50 under setting [1] was 1.03 µM [rising, full curve]. For the same molecule, the AC50 under setting [2] was 1.46 µM [rising, partial curve].
For the molecule `Cc1cc(C(=O)CN2C(=O)C(=O)N(Cc3ccccc3)C2=O)c(C)n1-c1ccc2c(c1)OCCO2`, the cell number change amounted to 22.2%. Under setting [1], the AC50 is 0.411 µM [rising, full curve, poor fit].
With `Cc1ccccc1CC(=O)N1CCCc2ccccc21`, the cell number change was -20.6%. Also, under setting [2], the AC50 is 18.4 µM [falling, single point].
Turning to `Cc1ccccc1-n1nc2c(c1NC(=O)c1cc3ccccc3oc1=O)CS(=O)(=O)C2`, the AC50 is 0.116 µM [rising, full curve] under setting [1] and 0.461 µM [rising, full curve] under setting [2].
In the case of `O=C(CN1CCN(C(=O)C2COc3ccccc3O2)CC1)Nc1ccccc1` (configuration not stated), the cell number change is -48.8%. Under setting [1], the AC50 is 1.84 µM [falling, partial curve, poor fit].
On to `CN1C(=O)/C(=C\c2ccncc2)SC1=Nc1ccccc1`, for which the cell number change worked out at 12.9%. In addition, under setting [2], the AC50 was 1.84 µM [rising, partial curve].
For the molecule `Cc1c(C(=O)Nc2ccccc2N2CCN(C)CC2)oc2ccc(F)cc12`, the cell number change was -33.8%. The AC50 under setting [1] is 20.6 µM [falling, single point]. Also, the AC50 under setting [2] was 29.1 µM [falling, single point].
As to `COc1ccc(N2C(=O)CC3(CCCC3)CC2=O)cc1`, the cell number change is -3.17%. Also, the AC50 under setting [1] is 6.51 µM [rising, single point].
For `Cc1ccc2nc(Nc3nc(C)cc(C(F)(F)F)n3)nc(C)c2c1`, the cell number change stood at 46.2%. For the same molecule, the AC50 under setting [1] was 9.2 µM [rising, partial curve]. Also, under setting [2], the AC50 is 7.31 µM [rising, partial curve].
On to `CC(Sc1nc(N)cc(N)n1)C(=O)NCC1CCCO1` (configuration not stated), for which the cell number change was -55.4%. Further, under setting [1], the AC50 is 16.4 µM [falling, single point]. Besides, under setting [2], the AC50 was 20.6 µM [falling, single point].
With `COc1ccccc1N1C(=N)S/C(=C\c2ccc(-c3ccccc3C(=O)O)o2)C1=O`, the cell number change turned out to be 0.487%. Under setting [2], the AC50 is 18.4 µM [rising, single point].
For the molecule `CCOC(=O)[C@H]1[C@H]2COc3ccc(OC)cc3[C@@H]2N2C(=O)CN(Cc3ccc(C)cc3)C(=O)[C@@]12C`, the cell number change stood at 17.4%.
Turning to `COC(=O)Cn1c(CCS(=O)(=O)c2ccc(C)c(C)c2)nc2ccccc21`, the AC50 runs as follows: under setting [1], 4.11 µM [rising, single point]; under setting [2], 6.51 µM [rising, partial curve, poor fit].

One may read the AC50 as the midpoint of the concentration-response curve, whichever way the signal moves.
